No constants are given. Whether binding was seen depends on the method and setting. In cells and extracts the contact can be indirect.

Amino acid sequences for entries named in this document (tags omitted). A change or cut given only in a name is not applied to a line headed by its entry.
UniProt Q92973: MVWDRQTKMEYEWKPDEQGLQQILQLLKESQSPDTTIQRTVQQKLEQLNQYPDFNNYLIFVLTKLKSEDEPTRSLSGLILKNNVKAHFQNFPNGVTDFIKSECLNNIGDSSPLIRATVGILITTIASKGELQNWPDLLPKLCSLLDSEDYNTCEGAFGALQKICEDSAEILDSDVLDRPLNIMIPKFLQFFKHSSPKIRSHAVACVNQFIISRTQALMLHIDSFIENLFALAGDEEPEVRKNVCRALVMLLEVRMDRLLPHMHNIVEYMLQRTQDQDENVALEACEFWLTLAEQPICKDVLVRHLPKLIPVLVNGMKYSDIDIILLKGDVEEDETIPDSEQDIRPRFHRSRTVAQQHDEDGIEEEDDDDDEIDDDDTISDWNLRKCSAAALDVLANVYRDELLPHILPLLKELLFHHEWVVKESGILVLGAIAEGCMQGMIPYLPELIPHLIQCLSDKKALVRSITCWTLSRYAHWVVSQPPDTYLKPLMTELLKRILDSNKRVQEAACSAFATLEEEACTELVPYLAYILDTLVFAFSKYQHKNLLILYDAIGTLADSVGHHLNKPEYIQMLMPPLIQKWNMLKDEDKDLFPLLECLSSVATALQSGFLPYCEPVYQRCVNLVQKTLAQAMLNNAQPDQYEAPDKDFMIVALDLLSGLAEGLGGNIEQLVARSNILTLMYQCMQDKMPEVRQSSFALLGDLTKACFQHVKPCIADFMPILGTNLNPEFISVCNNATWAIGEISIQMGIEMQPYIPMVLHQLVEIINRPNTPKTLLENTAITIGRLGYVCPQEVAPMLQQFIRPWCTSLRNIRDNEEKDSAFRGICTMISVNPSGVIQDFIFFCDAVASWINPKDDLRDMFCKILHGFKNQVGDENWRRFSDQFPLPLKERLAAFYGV
UniProt O15534: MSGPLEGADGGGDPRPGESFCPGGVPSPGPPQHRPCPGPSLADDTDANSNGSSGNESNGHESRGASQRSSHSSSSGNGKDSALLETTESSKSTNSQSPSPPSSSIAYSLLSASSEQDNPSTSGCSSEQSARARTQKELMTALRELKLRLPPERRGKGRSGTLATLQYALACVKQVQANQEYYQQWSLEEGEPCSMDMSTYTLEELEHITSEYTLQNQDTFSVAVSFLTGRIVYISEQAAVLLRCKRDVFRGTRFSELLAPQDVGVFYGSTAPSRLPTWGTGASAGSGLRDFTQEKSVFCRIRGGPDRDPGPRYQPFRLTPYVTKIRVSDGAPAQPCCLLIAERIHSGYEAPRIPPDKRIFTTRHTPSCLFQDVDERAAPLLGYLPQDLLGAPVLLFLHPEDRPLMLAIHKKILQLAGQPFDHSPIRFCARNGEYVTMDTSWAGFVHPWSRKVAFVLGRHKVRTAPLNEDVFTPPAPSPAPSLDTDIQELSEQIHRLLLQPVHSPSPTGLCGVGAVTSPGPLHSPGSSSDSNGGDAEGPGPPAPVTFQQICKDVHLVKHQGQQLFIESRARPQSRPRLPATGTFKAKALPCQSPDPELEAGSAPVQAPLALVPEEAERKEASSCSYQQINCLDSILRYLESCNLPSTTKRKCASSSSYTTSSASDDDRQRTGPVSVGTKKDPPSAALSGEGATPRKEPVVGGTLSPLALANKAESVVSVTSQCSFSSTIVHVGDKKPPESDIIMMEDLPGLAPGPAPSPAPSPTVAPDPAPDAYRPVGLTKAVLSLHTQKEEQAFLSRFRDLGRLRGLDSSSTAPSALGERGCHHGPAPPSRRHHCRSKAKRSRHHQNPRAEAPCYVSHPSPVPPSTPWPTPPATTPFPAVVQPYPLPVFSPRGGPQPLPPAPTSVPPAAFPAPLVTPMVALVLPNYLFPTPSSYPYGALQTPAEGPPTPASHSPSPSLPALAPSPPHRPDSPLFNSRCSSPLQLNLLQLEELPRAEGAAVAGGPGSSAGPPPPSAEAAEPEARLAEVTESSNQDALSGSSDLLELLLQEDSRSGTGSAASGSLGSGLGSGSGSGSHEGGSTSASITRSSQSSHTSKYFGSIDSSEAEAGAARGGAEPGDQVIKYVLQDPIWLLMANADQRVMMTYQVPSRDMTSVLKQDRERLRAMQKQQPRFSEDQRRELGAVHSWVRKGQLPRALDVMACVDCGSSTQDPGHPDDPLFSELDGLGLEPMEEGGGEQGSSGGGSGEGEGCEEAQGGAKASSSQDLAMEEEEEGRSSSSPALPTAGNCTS

The target of this experiment is MYC-tagged TNPO1 (UniProt Q92973). Kind of experiment: co-IP; luciferase-based read-out: HEK293 cells co-expressing PER1/2-Luc and MYC-TNPO1 (anti-MYC IP) or PER1/2-V5 and TNPO1-Luc (anti-V5 IP), lysed in PKB buffer without protease and phosphatase inhibitors, agarose G+ beads, 4°C, washed with ice cold PBS; luminescence counts relative to normal mouse IgG control IPs; also done with 200 μM H2O2 (higher signals for PER1, not PER2).

For the substance “PER1_(PY/Cys_mut)-LUCIFERASE (from UniProt O15534)”, the binding result is given as “no binding”.

Values taken from PMC5805371.
